Source: the supplement of paper PMC10849652
The list shows a part of the results.

The chains behind the UniProt entries cited, without tags or fusion partners. Where a name states a change or a piece, a line headed by the entry shows the natural chain unless it says otherwise.
UniProt Q9NZW5: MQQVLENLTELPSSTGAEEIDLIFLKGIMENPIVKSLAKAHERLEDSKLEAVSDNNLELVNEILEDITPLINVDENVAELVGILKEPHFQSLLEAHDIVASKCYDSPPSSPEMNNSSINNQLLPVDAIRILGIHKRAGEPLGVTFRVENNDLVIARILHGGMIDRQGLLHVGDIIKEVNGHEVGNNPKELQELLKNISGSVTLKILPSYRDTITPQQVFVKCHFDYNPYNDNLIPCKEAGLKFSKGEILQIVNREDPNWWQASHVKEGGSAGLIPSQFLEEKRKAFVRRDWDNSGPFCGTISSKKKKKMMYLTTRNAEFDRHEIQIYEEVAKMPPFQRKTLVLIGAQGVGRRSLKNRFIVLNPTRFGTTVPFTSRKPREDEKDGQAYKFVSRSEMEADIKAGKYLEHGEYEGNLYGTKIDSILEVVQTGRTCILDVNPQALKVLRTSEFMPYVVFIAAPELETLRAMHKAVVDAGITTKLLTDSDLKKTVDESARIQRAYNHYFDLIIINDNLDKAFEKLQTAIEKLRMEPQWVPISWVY
UniProt P29372, whole entry, looked up: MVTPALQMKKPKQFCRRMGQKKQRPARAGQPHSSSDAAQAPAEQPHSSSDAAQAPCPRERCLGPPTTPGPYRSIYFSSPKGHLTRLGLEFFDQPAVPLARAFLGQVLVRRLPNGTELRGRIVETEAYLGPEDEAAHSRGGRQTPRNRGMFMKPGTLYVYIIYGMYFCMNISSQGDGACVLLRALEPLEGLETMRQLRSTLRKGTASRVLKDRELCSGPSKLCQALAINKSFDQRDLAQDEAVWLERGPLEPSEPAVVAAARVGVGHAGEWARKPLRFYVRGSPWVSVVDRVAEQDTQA
UniProt Q9BPX6: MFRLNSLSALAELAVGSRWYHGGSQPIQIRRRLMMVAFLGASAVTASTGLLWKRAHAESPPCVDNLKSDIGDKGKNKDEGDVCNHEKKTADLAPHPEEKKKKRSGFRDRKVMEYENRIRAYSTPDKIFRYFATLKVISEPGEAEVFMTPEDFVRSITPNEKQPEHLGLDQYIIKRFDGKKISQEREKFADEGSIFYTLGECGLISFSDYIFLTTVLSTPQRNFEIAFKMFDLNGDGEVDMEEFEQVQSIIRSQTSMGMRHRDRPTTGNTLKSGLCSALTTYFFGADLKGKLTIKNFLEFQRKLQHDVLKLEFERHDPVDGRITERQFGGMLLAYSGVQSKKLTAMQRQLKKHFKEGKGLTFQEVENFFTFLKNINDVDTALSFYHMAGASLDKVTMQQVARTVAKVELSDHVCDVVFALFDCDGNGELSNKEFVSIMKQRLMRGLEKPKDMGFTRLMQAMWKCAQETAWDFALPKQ
UniProt Q9H081: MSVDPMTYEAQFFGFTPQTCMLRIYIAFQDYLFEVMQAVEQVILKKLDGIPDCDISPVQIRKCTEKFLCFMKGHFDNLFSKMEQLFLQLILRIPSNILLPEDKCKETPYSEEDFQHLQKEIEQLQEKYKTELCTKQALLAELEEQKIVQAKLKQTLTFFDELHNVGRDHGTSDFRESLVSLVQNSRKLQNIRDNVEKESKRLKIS
UniProt Q9NZB8: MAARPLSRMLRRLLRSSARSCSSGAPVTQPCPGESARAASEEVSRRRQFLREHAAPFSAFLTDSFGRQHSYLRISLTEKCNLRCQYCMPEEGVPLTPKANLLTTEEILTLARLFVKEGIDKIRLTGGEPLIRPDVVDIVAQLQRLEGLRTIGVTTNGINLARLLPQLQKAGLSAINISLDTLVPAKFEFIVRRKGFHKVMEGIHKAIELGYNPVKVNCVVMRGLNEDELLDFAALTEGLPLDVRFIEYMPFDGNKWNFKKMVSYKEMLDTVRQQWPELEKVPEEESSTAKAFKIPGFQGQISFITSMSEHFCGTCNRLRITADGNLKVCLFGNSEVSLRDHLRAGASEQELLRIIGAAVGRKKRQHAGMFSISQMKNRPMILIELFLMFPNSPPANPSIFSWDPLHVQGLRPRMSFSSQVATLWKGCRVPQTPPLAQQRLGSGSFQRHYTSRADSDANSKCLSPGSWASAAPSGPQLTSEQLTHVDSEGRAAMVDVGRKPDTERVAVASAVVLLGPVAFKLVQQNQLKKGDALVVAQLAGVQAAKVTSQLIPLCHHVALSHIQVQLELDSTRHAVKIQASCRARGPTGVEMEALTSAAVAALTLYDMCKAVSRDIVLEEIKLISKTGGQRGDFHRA
UniProt Q9HCE1: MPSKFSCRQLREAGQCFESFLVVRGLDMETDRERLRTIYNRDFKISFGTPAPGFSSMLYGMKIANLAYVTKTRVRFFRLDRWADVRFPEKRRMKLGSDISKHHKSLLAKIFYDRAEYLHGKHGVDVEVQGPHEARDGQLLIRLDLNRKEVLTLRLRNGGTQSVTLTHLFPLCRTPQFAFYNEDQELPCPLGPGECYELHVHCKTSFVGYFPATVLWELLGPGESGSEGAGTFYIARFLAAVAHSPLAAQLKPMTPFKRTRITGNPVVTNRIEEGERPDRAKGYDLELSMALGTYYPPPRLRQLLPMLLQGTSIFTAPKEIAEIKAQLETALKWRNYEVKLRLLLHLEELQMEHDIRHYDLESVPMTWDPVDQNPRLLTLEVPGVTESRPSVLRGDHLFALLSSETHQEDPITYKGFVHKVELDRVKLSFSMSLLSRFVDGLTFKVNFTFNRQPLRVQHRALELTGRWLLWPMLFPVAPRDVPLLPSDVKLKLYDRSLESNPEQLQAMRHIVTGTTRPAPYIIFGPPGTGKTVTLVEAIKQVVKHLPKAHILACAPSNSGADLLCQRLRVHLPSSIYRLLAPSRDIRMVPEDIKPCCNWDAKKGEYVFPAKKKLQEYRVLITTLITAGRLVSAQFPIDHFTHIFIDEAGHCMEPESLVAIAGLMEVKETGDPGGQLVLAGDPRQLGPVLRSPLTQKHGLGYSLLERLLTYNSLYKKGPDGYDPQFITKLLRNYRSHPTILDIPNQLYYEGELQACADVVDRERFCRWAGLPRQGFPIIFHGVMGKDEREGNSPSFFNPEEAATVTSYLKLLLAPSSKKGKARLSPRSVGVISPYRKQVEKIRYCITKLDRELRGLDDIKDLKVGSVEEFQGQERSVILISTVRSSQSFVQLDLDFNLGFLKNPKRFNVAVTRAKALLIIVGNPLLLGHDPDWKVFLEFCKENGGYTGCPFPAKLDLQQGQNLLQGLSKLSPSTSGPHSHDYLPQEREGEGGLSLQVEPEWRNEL
UniProt Q03111: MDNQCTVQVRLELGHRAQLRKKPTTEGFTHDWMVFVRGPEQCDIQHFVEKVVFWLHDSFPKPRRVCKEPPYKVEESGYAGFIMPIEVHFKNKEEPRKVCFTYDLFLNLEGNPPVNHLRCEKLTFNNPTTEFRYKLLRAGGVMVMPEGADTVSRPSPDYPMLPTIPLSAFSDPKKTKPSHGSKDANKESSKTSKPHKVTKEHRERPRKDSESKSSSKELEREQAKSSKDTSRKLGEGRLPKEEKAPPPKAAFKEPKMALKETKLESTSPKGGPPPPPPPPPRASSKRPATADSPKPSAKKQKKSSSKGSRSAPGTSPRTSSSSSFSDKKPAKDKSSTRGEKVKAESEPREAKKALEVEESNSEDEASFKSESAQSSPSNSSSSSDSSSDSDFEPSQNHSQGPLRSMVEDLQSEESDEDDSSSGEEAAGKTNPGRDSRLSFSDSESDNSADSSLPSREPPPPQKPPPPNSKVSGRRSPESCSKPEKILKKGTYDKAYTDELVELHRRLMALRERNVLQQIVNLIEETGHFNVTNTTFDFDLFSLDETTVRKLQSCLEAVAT
UniProt Q14165: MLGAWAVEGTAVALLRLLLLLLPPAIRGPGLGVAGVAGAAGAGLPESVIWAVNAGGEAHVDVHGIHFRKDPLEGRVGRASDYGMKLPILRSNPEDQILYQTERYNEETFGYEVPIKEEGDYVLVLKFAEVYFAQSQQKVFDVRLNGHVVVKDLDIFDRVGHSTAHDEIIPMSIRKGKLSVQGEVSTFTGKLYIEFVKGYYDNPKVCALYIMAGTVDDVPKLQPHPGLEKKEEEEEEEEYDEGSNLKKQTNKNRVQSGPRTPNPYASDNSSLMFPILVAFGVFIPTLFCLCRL
UniProt Q96EY8: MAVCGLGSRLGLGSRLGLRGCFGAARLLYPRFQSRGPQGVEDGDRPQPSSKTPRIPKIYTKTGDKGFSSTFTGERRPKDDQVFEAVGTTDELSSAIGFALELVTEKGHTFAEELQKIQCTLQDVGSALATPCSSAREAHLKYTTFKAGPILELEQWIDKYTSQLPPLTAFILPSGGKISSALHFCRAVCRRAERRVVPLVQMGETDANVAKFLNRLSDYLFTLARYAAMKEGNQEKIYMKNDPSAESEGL

Assays:
Assay in all cases: log2 fold change, soluble protein after heating vs DMSO (PISA); higher = thermal stabilisation; K562 cells, 10 uM, 30 min; active = over 0.2 and 3.5 SD of the protein, either way, in both replicates (recomputed)
bafetinib = compound: Cc1ccc(NC(=O)c2ccc(CN3CC[C@H](N(C)C)C3)c(C(F)(F)F)c2)cc1Nc1nccc(-c2cncnc2)n1 [bafetinib]
How it was run: (§1)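 Aliquots of K562 cells (2×10^6 cells/mL) treated with 10 μM compound for 30 min were heated for 3 min over 48°C-58°C. After pooling and extraction in PBS with 0.5% NP-40 at 4°C, soluble protein from a 21,000xg, 90 min spin was quantified by TMTpro 16plex LC-MS/MS with channel sums equalised. Thermal stability is expressed against control samples, from duplicates, as a log2 fold change.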

[1] = compound: Cc1cccc(CC(=O)N2CCc3c2ccc(-c2cn(C)c4ncnc(N)c24)c3F)n1
How it was run: as §1

nilotinib = compound: Cc1cn(-c2cc(NC(=O)c3ccc(C)c(Nc4nccc(-c5cccnc5)n4)c3)cc(C(F)(F)F)c2)cn1 [nilotinib]
How it was run: as §1

[2] = compound: Cc1nc(Nc2n[nH]c3c2CN(C(=O)N[C@H](CN(C)C)c2ccccc2)C3(C)C)c2sccc2n1
How it was run: as §1

dasatinib = compound: Cc1nc(Nc2ncc(C(=O)Nc3c(C)cccc3Cl)s2)cc(N2CCN(CCO)CC2)n1 [dasatinib]
How it was run: as §1

[3] = compound: Cc1ncc(-c2ccnc(Nc3ccc(S(C)(=O)=O)cc3)n2)n1C(C)C
How it was run: as §1

[4] = compound: Cn1cc(-c2ccc3c(c2)CCN3C(=O)Cc2cccc(C(F)(F)F)c2)c2c(N)ncnc21
How it was run: as §1

[5] = compound: Cn1cc(-c2ccc3nnc(C(F)(F)c4ccc5ncccc5c4)n3n2)cn1
How it was run: as §1

tipifarnib = compound: Cn1cncc1[C@@](N)(c1ccc(Cl)cc1)c1ccc2c(c1)c(-c1cccc(Cl)c1)cc(=O)n2C [tipifarnib]
How it was run: as §1

mubritinib = compound: FC(F)(F)c1ccc(/C=C/c2nc(COc3ccc(CCCCn4ccnn4)cc3)co2)cc1 [mubritinib]
How it was run: as §1

[6] = compound: NC(=O)Nc1cc(-c2cccc(F)c2)sc1C(=O)N[C@H]1CCCNC1
How it was run: as §1

[7] = compound: NC(=O)c1cnc(N[C@@H]2CCCC[C@@H]2N)nc1Nc1cccc(-n2nccn2)c1
How it was run: as §1

[8] = compound: NC1(c2ccc(-c3nc4ccn5c(=O)[nH]nc5c4cc3-c3ccccc3)cc2)CCC1
How it was run: as §1

[9] = compound: NCC(=O)Nc1ccc(-n2nc(C(F)(F)F)cc2-c2ccc3c(ccc4ccccc43)c2)cc1
How it was run: as §1

entinostat = compound: Nc1ccccc1NC(=O)c1ccc(CNC(=O)OCc2cccnc2)cc1 [entinostat]
How it was run: as §1

vorinostat = compound: O=C(CCCCCCC(=O)Nc1ccccc1)NO [vorinostat]
How it was run: as §1

citarinostat = compound: O=C(CCCCCCNC(=O)c1cnc(N(c2ccccc2)c2ccccc2Cl)nc1)NO [citarinostat]
How it was run: as §1

silmitasertib = compound: O=C(O)c1ccc2c(c1)nc(Nc1cccc(Cl)c1)c1ccncc12 [silmitasertib]
How it was run: as §1

[10] = compound: O=C1NC(=O)C(c2cnc3ccccn23)=C1c1cn2c3c(cc(F)cc13)CN(C(=O)N1CCCCC1)CC2
How it was run: as §1

[11] = compound: c1cc(OCCN2CCCCC2)cc(-c2n[nH]c3ccc(-c4nnc[nH]4)cc23)c1
How it was run: as §1

Measured: log2 fold change

MRPL42 (UniProt Q9Y6G3)
inactive: bafetinib -0.049 | [1] -0.258 | nilotinib 0.108 | [2] 0.1 | dasatinib 0.032 | [3] -0.057 | [4] -0.237 | [5] -0.045 | tipifarnib 0.339 | mubritinib -0.071 | [6] -0.007 | [7] 0.074 | [8] -0.015 | [9] 0 | entinostat -0.033 | vorinostat 0.152 | citarinostat 0.065 | silmitasertib 0.01 | [10] 0 | [11] 0.02

MPP6 (UniProt Q9NZW5)
inactive: bafetinib -0.024 | [1] -0.019 | nilotinib 0.033 | [2] -0.106 | dasatinib -0.025 | [3] -0.079 | [4] 0.074 | [5] -0.01 | tipifarnib 0.073 | mubritinib -0.017 | [6] -0.143 | [7] -0.015 | [8] -0.07 | [9] -0.03 | entinostat -0.009 | vorinostat 0.01 | citarinostat 0.063 | silmitasertib -0.009 | [10] -0.06 | [11] -0.055

MRPL15 (UniProt Q9P015)
inactive: bafetinib 0.223 | [1] 0.047 | nilotinib -0.062 | [2] 0.14 | dasatinib 0.053 | [3] -0.026 | [4] -0.181 | [5] 0.007 | tipifarnib 0.093 | mubritinib -0.025 | [6] 0.011 | [7] -0.027 | [8] 0.031 | [9] 0.082 | entinostat 0.008 | vorinostat 0.007 | citarinostat 0.013 | silmitasertib 0.023 | [10] 0.117 | [11] -0.059

MRPL11 (UniProt Q9Y3B7)
inactive: bafetinib 0.247 | [1] 0.047 | nilotinib -0.096 | [2] 0.248 | dasatinib 0 | [3] 0.004 | [4] -0.107 | [5] -0.04 | tipifarnib 0.042 | mubritinib 0.101 | [6] -0.018 | [7] 0.103 | [8] 0.033 | [9] 0.116 | entinostat -0.03 | vorinostat 0.06 | citarinostat 0.049 | silmitasertib -0.036 | [10] -0.02 | [11] -0.058

MRPL12 (UniProt P52815)
inactive: bafetinib -0.018 | [1] -0.001 | nilotinib -0.026 | [2] 0.022 | dasatinib 0.115 | [3] -0.033 | [4] 0.015 | [5] 0.171 | tipifarnib 0.099 | mubritinib -0.036 | [6] -0.05 | [7] 0.038 | [8] 0.008 | [9] -0.015 | entinostat 0.076 | vorinostat -0.044 | citarinostat -0.051 | silmitasertib -0.01 | [10] -0.071 | [11] -0.067

MPG (UniProt P29372)
inactive: bafetinib 0.069 | [1] -0.071 | nilotinib -0.045 | [2] 0.042 | dasatinib 0.015 | [3] 0.022 | [4] 0.03 | [5] -0.014 | tipifarnib 0.008 | mubritinib -0.026 | [6] -0.01 | [7] 0.025 | [8] 0.025 | [9] 0.003 | entinostat -0.034 | vorinostat 0.05 | citarinostat -0.045 | silmitasertib -0.014 | [10] 0.026 | [11] -0.06

MRPL47 (UniProt Q9HD33)
inactive: bafetinib 0.264 | [1] -0.263 | nilotinib -0.124 | [2] 0.118 | dasatinib 0.016 | [3] 0.073 | [4] -0.174 | [5] -0.085 | tipifarnib 0.103 | mubritinib -0.029 | [6] 0.024 | [7] 0.058 | [8] 0.039 | [9] 0.057 | entinostat 0.028 | vorinostat -0.195 | citarinostat -0.087 | silmitasertib -0.021 | [10] -0.011 | [11] 0.336

MICU1 isoform 3 (UniProt Q9BPX6)
inactive: bafetinib -0.098 | [1] 0.106 | nilotinib -0.037 | [2] -0.012 | dasatinib -0.065 | [3] -0.022 | [4] -0.012 | [5] -0.055 | tipifarnib -0.019 | mubritinib -0.064 | [6] -0.048 | [7] -0.022 | [8] -0.012 | [9] 0.039 | entinostat 0.016 | vorinostat 0.017 | citarinostat 0.053 | silmitasertib 0.117 | [10] 0.027 | [11] -0.085

MIS12 (UniProt Q9H081)
inactive: bafetinib -0.05 | [1] 0.017 | nilotinib -0.062 | [2] -0.048 | dasatinib -0.114 | [3] 0.037 | [4] -0.028 | [5] 0.005 | tipifarnib 0.016 | mubritinib 0.071 | [6] 0.016 | [7] -0.084 | [8] -0.079 | [9] -0.101 | entinostat 0.027 | vorinostat 0.123 | citarinostat 0.014 | silmitasertib 0.016 | [10] 0.02 | [11] -0.081

MOCS1 isoform 8 (UniProt Q9NZB8)
inactive: bafetinib 0.016 | [1] -0.017 | nilotinib -0.048 | [2] -0.016 | dasatinib -0.057 | [3] -0.087 | [4] 0.071 | [5] 0.035 | tipifarnib -0.038 | mubritinib -0.024 | [6] 0.015 | [7] 0.017 | [8] -0.021 | [9] -0.039 | entinostat -0.026 | vorinostat -0.072 | citarinostat -0.01 | silmitasertib 0.033 | [10] -0.054 | [11] -0.001

MOV10 (UniProt Q9HCE1)
inactive: bafetinib 0.068 | [1] 0 | nilotinib 0.035 | [2] 0.041 | dasatinib 0.111 | [3] 0.068 | [4] -0.055 | [5] -0.101 | tipifarnib 0.091 | mubritinib -0.014 | [6] 0.007 | [7] 0.031 | [8] 0.178 | [9] 0.018 | entinostat 0.016 | vorinostat -0.02 | citarinostat -0.054 | silmitasertib 0.133 | [10] 0.187 | [11] -0.164

MRPL39 (UniProt Q9NYK5)
inactive: bafetinib 0.05 | [1] 0.084 | nilotinib -0.011 | [2] 0.12 | dasatinib -0.033 | [3] 0.01 | [4] -0.085 | [5] -0.019 | tipifarnib 0.024 | mubritinib 0.029 | [6] -0.026 | [7] 0.024 | [8] -0.015 | [9] 0.084 | entinostat -0.01 | vorinostat 0.087 | citarinostat 0.006 | silmitasertib 0.048 | [10] 0.049 | [11] -0.031

MLLT1 (UniProt Q03111)
inactive: bafetinib -0.154 | [1] -0.043 | nilotinib -0.024 | [2] 0.038 | dasatinib -0.049 | [3] -0.091 | [4] -0.069 | [5] 0.099 | tipifarnib -0.017 | mubritinib 0.009 | [6] 0.007 | [7] -0.032 | [8] -0.001 | [9] -0.332 | entinostat -0.032 | vorinostat 0.073 | citarinostat -0.014 | silmitasertib 0.051 | [10] 0.113 | [11] -0.067

MLEC (UniProt Q14165)
inactive: bafetinib -0.034 | [1] 0.008 | nilotinib -0.026 | [2] 0.042 | dasatinib 0.032 | [3] -0.004 | [4] -0.03 | [5] 0.032 | tipifarnib 0.038 | mubritinib -0.011 | [6] -0.002 | [7] -0.01 | [8] -0.033 | [9] 0.015 | entinostat 0.013 | vorinostat -0.029 | citarinostat -0.004 | silmitasertib 0.039 | [10] -0.037 | [11] -0.051

MMAB (UniProt Q96EY8)
inactive: bafetinib -0.047 | [1] -0.041 | nilotinib -0.025 | [2] 0.03 | dasatinib -0.014 | [3] 0.005 | [4] 0.046 | [5] -0.038 | tipifarnib -0.032 | mubritinib -0.024 | [6] -0.055 | [7] 0.004 | [8] -0.007 | [9] 0.004 | entinostat 0.005 | vorinostat 0.009 | citarinostat 0.009 | silmitasertib -0.021 | [10] -0.066 | [11] 0.011

Reprinted at random: two records from the list, in no set order.
MLEC (UniProt Q14165)
inactive: bafetinib -0.034 | [1] 0.008 | nilotinib -0.026 | [2] 0.042 | dasatinib 0.032 | [3] -0.004 | [4] -0.03 | [5] 0.032 | tipifarnib 0.038 | mubritinib -0.011 | [6] -0.002 | [7] -0.01 | [8] -0.033 | [9] 0.015 | entinostat 0.013 | vorinostat -0.029 | citarinostat -0.004 | silmitasertib 0.039 | [10] -0.037 | [11] -0.051

MOV10 (UniProt Q9HCE1)
inactive: bafetinib 0.068 | [1] 0 | nilotinib 0.035 | [2] 0.041 | dasatinib 0.111 | [3] 0.068 | [4] -0.055 | [5] -0.101 | tipifarnib 0.091 | mubritinib -0.014 | [6] 0.007 | [7] 0.031 | [8] 0.178 | [9] 0.018 | entinostat 0.016 | vorinostat -0.02 | citarinostat -0.054 | silmitasertib 0.133 | [10] 0.187 | [11] -0.164
